Test results: the supplement of paper PMC10849652
This is one part of the list.

By UniProt entry, the sequences of proteins in these tests, tags left out. Where a name states a change or a piece, a line headed by the entry shows the natural chain unless it says otherwise.
UniProt Q8N5J2: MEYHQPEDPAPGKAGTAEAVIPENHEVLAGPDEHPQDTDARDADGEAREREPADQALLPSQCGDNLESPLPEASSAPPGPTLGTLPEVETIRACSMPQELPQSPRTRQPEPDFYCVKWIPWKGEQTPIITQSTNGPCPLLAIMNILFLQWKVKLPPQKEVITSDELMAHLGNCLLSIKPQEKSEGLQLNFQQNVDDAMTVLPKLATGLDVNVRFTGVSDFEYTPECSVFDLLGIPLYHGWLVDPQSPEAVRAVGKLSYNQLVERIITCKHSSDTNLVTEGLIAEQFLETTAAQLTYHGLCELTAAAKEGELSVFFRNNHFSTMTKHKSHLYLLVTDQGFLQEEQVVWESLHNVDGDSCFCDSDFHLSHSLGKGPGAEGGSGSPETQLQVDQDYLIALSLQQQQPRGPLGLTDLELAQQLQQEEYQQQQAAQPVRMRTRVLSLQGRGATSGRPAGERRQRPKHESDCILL
UniProt Q96EN8: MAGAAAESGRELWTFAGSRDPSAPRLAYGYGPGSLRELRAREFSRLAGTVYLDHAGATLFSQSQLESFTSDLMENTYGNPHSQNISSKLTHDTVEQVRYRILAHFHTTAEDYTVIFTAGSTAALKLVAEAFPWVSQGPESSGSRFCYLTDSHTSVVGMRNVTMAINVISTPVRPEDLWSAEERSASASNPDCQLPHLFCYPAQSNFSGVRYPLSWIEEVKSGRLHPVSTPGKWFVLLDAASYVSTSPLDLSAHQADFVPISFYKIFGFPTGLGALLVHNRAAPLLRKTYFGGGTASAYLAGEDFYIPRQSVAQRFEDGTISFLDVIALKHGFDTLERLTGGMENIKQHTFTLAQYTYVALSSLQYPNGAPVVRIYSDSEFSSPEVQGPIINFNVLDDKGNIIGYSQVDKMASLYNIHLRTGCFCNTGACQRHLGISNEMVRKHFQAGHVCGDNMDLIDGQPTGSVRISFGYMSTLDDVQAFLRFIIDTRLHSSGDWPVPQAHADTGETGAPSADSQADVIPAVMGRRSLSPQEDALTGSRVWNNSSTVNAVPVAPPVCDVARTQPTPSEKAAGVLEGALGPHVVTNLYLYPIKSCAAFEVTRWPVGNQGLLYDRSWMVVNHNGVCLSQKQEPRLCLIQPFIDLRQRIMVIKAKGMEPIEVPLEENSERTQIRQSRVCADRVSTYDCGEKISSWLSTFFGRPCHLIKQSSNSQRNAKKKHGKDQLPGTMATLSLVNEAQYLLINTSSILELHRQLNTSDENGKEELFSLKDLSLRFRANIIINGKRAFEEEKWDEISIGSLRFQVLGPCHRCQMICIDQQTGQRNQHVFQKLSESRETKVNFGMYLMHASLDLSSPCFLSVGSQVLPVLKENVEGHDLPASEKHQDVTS
UniProt Q14165: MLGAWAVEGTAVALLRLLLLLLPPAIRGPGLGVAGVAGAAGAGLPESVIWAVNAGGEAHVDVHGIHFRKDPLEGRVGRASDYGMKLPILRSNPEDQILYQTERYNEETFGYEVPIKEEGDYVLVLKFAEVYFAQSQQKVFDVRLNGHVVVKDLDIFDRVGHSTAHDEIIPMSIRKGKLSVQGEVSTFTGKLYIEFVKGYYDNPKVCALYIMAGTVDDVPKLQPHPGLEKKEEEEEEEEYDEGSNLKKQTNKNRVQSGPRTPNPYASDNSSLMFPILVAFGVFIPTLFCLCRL
UniProt Q9UH92: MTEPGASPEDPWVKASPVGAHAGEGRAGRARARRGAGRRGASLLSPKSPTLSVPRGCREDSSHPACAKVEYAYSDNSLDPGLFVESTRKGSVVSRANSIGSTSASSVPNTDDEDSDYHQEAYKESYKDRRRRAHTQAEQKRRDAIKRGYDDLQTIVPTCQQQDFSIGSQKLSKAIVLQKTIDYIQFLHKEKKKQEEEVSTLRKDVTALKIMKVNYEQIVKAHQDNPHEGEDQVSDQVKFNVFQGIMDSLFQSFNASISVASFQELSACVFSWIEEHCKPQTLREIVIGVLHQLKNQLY
UniProt Q14149: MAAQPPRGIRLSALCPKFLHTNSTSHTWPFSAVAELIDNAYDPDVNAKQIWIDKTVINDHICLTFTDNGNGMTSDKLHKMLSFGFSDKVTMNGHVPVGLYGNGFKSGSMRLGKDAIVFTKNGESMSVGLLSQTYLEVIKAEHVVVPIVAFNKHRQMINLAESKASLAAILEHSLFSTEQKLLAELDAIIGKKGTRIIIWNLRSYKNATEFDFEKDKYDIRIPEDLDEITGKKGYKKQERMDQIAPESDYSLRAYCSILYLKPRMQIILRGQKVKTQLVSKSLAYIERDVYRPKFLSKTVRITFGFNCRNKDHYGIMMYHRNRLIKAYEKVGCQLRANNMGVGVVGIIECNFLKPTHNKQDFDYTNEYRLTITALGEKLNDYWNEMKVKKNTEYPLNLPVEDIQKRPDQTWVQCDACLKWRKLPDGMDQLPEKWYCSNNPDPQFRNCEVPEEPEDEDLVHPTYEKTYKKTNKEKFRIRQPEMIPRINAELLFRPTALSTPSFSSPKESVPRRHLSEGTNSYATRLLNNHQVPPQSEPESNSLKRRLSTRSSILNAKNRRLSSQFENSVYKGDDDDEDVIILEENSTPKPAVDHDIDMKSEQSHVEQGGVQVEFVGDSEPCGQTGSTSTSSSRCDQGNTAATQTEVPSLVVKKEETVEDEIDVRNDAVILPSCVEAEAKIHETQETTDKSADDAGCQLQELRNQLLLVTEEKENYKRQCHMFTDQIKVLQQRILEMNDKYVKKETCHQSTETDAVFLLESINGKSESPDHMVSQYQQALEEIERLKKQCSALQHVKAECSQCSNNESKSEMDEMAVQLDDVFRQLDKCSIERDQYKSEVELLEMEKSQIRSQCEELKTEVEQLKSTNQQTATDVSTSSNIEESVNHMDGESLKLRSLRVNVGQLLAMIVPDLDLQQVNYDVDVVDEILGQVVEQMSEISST
UniProt Q9NXC5: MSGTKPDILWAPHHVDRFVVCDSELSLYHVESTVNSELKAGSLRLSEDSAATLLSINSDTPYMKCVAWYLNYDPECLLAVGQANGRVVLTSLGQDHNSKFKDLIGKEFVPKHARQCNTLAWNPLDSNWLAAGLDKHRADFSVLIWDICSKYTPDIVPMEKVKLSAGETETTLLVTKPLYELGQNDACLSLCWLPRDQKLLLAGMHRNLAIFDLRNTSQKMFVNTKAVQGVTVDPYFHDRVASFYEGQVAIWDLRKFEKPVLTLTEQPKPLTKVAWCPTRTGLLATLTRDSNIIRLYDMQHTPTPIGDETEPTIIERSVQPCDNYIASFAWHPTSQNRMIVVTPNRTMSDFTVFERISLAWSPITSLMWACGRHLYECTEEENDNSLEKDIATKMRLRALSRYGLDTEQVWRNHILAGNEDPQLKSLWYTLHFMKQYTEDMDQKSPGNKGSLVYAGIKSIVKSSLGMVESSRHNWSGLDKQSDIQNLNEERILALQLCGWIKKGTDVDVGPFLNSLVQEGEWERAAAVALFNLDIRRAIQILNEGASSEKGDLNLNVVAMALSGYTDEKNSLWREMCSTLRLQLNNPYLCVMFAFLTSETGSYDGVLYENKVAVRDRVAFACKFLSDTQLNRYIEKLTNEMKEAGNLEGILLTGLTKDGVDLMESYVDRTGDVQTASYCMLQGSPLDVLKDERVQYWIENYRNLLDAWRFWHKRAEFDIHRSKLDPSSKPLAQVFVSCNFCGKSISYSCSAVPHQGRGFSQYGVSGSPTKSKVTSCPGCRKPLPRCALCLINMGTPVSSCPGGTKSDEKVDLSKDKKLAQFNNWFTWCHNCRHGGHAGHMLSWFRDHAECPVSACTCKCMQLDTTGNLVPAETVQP
UniProt P10620: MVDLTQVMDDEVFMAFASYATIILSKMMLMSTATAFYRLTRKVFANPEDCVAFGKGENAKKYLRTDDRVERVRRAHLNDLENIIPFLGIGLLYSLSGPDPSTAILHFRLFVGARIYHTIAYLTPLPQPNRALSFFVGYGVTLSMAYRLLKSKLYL
UniProt O96007: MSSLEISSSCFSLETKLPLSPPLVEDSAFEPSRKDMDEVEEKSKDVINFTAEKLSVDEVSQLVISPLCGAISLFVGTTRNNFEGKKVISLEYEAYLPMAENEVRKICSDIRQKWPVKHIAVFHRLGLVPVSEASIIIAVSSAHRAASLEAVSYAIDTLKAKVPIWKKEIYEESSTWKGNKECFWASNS
UniProt Q9UL63, whole entry, looked up: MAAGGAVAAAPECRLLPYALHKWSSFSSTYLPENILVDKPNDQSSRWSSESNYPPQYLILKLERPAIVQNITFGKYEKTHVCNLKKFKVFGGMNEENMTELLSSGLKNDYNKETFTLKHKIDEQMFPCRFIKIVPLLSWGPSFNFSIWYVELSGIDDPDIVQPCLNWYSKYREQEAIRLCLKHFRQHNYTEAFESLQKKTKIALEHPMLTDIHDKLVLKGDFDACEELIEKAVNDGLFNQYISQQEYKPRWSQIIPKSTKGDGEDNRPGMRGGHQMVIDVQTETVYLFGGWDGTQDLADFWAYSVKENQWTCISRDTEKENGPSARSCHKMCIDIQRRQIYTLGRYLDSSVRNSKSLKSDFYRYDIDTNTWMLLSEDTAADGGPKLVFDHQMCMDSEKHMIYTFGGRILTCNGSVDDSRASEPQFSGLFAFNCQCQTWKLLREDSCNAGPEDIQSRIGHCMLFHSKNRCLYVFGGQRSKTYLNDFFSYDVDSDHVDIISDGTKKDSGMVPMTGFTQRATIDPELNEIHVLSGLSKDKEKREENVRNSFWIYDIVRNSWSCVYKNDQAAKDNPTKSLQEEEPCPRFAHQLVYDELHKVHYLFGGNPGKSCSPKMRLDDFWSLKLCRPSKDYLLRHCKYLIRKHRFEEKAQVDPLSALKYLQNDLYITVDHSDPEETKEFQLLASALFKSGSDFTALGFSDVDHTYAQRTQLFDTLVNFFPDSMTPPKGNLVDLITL
UniProt Q86YT6, whole entry, looked up: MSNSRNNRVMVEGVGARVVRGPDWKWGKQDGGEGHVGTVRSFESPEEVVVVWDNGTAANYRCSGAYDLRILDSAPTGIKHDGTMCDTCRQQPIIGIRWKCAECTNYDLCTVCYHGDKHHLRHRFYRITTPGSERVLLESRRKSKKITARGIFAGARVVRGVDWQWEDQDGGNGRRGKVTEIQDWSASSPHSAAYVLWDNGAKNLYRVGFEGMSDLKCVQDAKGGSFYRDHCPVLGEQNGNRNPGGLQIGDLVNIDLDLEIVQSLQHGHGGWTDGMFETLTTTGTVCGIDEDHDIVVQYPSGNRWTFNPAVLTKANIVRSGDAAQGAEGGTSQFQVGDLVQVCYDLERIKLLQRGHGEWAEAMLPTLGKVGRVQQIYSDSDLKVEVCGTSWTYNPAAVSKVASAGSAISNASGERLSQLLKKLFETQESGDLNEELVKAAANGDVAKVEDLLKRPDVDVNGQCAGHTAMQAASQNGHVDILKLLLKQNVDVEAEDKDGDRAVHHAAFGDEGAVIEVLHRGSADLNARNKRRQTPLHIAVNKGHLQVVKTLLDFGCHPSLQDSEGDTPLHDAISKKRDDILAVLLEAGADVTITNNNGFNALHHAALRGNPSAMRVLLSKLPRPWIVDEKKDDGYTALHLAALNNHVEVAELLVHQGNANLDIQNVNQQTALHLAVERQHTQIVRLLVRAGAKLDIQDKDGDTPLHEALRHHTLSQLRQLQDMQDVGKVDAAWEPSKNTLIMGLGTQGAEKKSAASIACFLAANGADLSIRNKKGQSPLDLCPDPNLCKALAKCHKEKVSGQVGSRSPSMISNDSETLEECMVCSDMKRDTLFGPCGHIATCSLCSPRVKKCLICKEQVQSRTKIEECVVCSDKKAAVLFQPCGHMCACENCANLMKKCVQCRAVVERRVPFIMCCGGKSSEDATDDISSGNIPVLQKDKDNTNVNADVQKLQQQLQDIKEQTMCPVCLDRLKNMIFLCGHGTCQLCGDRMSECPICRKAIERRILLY
UniProt O95822: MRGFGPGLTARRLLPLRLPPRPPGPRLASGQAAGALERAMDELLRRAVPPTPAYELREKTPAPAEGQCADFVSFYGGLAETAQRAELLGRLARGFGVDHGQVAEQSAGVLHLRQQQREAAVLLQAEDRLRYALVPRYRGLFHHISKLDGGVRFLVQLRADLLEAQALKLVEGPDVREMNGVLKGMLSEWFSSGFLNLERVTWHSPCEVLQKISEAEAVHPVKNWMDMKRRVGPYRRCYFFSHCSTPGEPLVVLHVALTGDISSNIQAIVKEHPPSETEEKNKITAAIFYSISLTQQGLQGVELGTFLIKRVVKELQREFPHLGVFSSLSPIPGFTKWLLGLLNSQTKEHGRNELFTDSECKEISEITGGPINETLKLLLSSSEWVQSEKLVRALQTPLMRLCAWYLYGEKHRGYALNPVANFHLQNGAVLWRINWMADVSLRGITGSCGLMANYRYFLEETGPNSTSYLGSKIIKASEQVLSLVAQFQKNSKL
UniProt Q9Y5U8: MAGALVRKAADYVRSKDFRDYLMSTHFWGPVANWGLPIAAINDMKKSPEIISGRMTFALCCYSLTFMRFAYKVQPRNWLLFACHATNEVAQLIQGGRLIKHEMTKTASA

Legend:
Assay in all cases: log2 fold change, soluble protein after heating vs DMSO (PISA); higher = thermal stabilisation; K562 lysate, 10 uM; active = over 0.2 and 3.5 SD of the protein, either way, in both replicates (recomputed)
nilotinib = compound: Cc1cn(-c2cc(NC(=O)c3ccc(C)c(Nc4nccc(-c5cccnc5)n4)c3)cc(C(F)(F)F)c2)cn1 [nilotinib]
How it was run: (§1)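 The values are log-two fold changes in thermal stability compared with solvent controls and come from duplicates. They were obtained by TMTpro 16plex LC-MS/MS, with channel sums equalised, on the supernatant after 21,000xg for 90 min. That supernatant came from crude K562 extract at 1 mg/mL protein treated with 10 μM compound for 30 min, heated for 3 min across 48°C-58°C, pooled and brought to 0.5% NP-40 at 4°C.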

[1] = compound: Cc1nc(Nc2n[nH]c3c2CN(C(=O)N[C@H](CN(C)C)c2ccccc2)C3(C)C)c2sccc2n1
How it was run: as §1

dasatinib = compound: Cc1nc(Nc2ncc(C(=O)Nc3c(C)cccc3Cl)s2)cc(N2CCN(CCO)CC2)n1 [dasatinib]
How it was run: as §1

[2] = compound: Cc1ncc(-c2ccnc(Nc3ccc(S(C)(=O)=O)cc3)n2)n1C(C)C
How it was run: as §1

[3] = compound: Cn1cc(-c2ccc3c(c2)CCN3C(=O)Cc2cccc(C(F)(F)F)c2)c2c(N)ncnc21
How it was run: as §1

quisinostat = compound: Cn1cc(CNCC2CCN(c3ncc(C(=O)NO)cn3)CC2)c2ccccc21 [quisinostat]
How it was run: as §1

tipifarnib = compound: Cn1cncc1[C@@](N)(c1ccc(Cl)cc1)c1ccc2c(c1)c(-c1cccc(Cl)c1)cc(=O)n2C [tipifarnib]
How it was run: as §1

[4] = compound: NC(=O)Nc1cc(-c2cccc(F)c2)sc1C(=O)N[C@H]1CCCNC1
How it was run: as §1

[5] = compound: NC(=O)c1cnc(N[C@@H]2CCCC[C@@H]2N)nc1Nc1cccc(-n2nccn2)c1
How it was run: as §1

[6] = compound: NC1(c2ccc(-c3nc4ccn5c(=O)[nH]nc5c4cc3-c3ccccc3)cc2)CCC1
How it was run: as §1

Measured: log2 fold change

MKRN1 (UniProt Q9UHC7)
inactive: nilotinib -0.139 | [1] 0.03 | dasatinib -0.031 | [2] -0.189 | [3] 0.126 | quisinostat -0.03 | tipifarnib -0.063 | [4] -0.025 | [5] -0.018 | [6] 0.055

MPG (UniProt P29372)
inactive: nilotinib -0.023 | [1] -0.077 | dasatinib -0.037 | [2] -0.051 | [3] -0.006 | quisinostat 0 | tipifarnib 0.019 | [4] 0.023 | [5] 0.005 | [6] -0.003

MINDY1 isoform 3 (UniProt Q8N5J2)
active: [5] 0.548
inactive: nilotinib -0.03 | [1] 0.154 | dasatinib -0.086 | [2] 0.271 | [3] 0.159 | quisinostat -0.006 | tipifarnib 0.022 | [4] -0.072 | [6] 0.038

MIS12 (UniProt Q9H081)
inactive: nilotinib 0.035 | [1] 0.01 | dasatinib 0.001 | [2] -0.015 | [3] 0.023 | quisinostat -0.055 | tipifarnib -0.019 | [4] 0.048 | [5] 0.054 | [6] 0.021

MOCOS (UniProt Q96EN8)
inactive: nilotinib 0.044 | [1] -0.066 | dasatinib -0.002 | [2] -0.006 | [3] 0.053 | quisinostat -0.076 | tipifarnib 0.013 | [4] 0.011 | [5] 0.034 | [6] 0.031

MMADHC (UniProt Q9H3L0)
inactive: nilotinib -0.157 | [1] 0.001 | dasatinib -0.018 | [2] 0.033 | [3] 0.041 | quisinostat -0.052 | tipifarnib -0.012 | [4] 0.007 | [5] 0.034 | [6] 0.051

MLEC (UniProt Q14165)
inactive: nilotinib -0.033 | [1] 0.003 | dasatinib -0.036 | [2] -0.008 | [3] 0.007 | quisinostat 0.017 | tipifarnib 0.005 | [4] -0.019 | [5] -0.009 | [6] -0.025

MLX (UniProt Q9UH92)
inactive: nilotinib 0.023 | [1] 0.065 | dasatinib -0.059 | [2] -0.066 | [3] 0.06 | quisinostat -0.119 | tipifarnib -0.08 | [4] -0.03 | [5] 0.012 | [6] 0.094

MORC3 (UniProt Q14149)
inactive: nilotinib 0.001 | [1] 0.012 | dasatinib 0.006 | [2] -0.015 | [3] 0.046 | quisinostat -0.018 | tipifarnib -0.01 | [4] 0.037 | [5] -0.017 | [6] -0.004

MIOS (UniProt Q9NXC5)
inactive: nilotinib -0.005 | [1] 0.003 | dasatinib 0.012 | [2] -0.019 | [3] 0.016 | quisinostat -0.017 | tipifarnib 0.002 | [4] -0.001 | [5] -0.039 | [6] 0.016

MRI1 (UniProt Q9BV20)
inactive: nilotinib 0.011 | [1] -0.017 | dasatinib 0.001 | [2] 0.022 | [3] 0.009 | quisinostat -0.013 | tipifarnib -0.002 | [4] 0.012 | [5] 0.021 | [6] 0.009

MICALL1 (UniProt Q8N3F8)
inactive: nilotinib 0.004 | [1] 0.004 | dasatinib 0.002 | [2] -0.002 | [3] 0.005 | quisinostat -0.013 | tipifarnib 0.067 | [4] -0.007 | [5] 0.002 | [6] -0.007

MMTAG2 (UniProt Q9BU76)
inactive: nilotinib -0.008 | [1] -0.121 | dasatinib 0.018 | [2] 0.034 | [3] 0.005 | quisinostat -0.047 | tipifarnib 0.021 | [4] -0.019 | [5] 0.013 | [6] 0.005

MOB1B isoform 2 (UniProt Q7L9L4)
inactive: nilotinib 0.025 | [1] -0.006 | dasatinib 0.003 | [2] 0.036 | [3] 0.002 | quisinostat -0.05 | tipifarnib -0.029 | [4] 0.024 | [5] -0.007 | [6] -0.042

MGST1 (UniProt P10620)
inactive: nilotinib 0.033 | [1] -0.002 | dasatinib -0.012 | [2] -0.017 | [3] 0.014 | quisinostat -0.029 | tipifarnib 0.02 | [4] 0.085 | [5] -0.007 | [6] -0.012

MOCS2 (UniProt O96007)
inactive: nilotinib 0.01 | [1] -0.035 | dasatinib 0.012 | [2] -0.036 | [3] -0.019 | quisinostat 0.02 | tipifarnib 0.025 | [4] -0.063 | [5] -0.004 | [6] -0.024

MKLN1 (UniProt Q9UL63)
inactive: nilotinib 0.037 | [1] -0.005 | dasatinib -0.009 | [2] -0.013 | [3] 0.014 | quisinostat -0.019 | tipifarnib 0.012 | [4] 0.024 | [5] 0 | [6] 0.005

MRPL21 (UniProt Q7Z2W9)
inactive: nilotinib -0.096 | [1] -0.002 | dasatinib -0.037 | [2] 0.095 | [3] 0.026 | quisinostat -0.035 | tipifarnib 0.022 | [4] -0.015 | [5] 0.007 | [6] -0.014

MON2 isoform 5 (UniProt Q7Z3U7)
inactive: nilotinib -0.006 | [1] -0.021 | dasatinib -0.072 | [2] 0.018 | [3] 0.039 | quisinostat -0.074 | tipifarnib -0.004 | [4] 0.021 | [5] 0.005 | [6] -0.003

MRPL12 (UniProt P52815)
inactive: nilotinib 0.032 | [1] -0.01 | dasatinib 0.034 | [2] 0.099 | [3] -0.013 | quisinostat 0.084 | tipifarnib 0.031 | [4] -0.023 | [5] -0.022 | [6] -0.006

MIPEP (UniProt Q99797)
inactive: nilotinib 0.002 | [1] 0.024 | dasatinib 0.005 | [2] -0.008 | [3] 0.031 | tipifarnib 0.033 | [4] -0.016 | [5] 0.01 | [6] 0.054
active: quisinostat 0.45

MOSPD2 (UniProt Q8NHP6)
inactive: nilotinib 0.054 | [1] -0.146 | dasatinib 0.006 | [2] -0.009 | [3] 0.015 | quisinostat -0.096 | tipifarnib 0.089 | [4] -0.034 | [5] -0.043 | [6] -0.026

MIB1 (UniProt Q86YT6)
inactive: nilotinib 0.133 | [1] 0.128 | dasatinib 0.005 | [2] 0.012 | [3] -0.081 | quisinostat -0.008 | tipifarnib -0.041 | [4] 0.017 | [5] 0.094 | [6] -0.069

MLYCD (UniProt O95822)
inactive: nilotinib 0.089 | [1] -0.008 | dasatinib -0.011 | [2] -0.074 | [3] 0.038 | quisinostat -0.058 | tipifarnib 0.044 | [4] 0.118 | [5] -0.042 | [6] -0.015

MPC1 (UniProt Q9Y5U8)
inactive: dasatinib 0 | [3] 0.03 | quisinostat 0.036 | [4] 0.068 | [5] -0.033 | [6] 0.054

Quoted from the listing (2 entries):
MLYCD (UniProt O95822)
inactive: nilotinib 0.089 | [1] -0.008 | dasatinib -0.011 | [2] -0.074 | [3] 0.038 | quisinostat -0.058 | tipifarnib 0.044 | [4] 0.118 | [5] -0.042 | [6] -0.015

MPC1 (UniProt Q9Y5U8)
inactive: dasatinib 0 | [3] 0.03 | quisinostat 0.036 | [4] 0.068 | [5] -0.033 | [6] 0.054

Next entries follow.

MLXIPL (UniProt Q9NP71)
inactive: quisinostat -0.027 | [4] 0.044 | [6] -0.007

MISP3 (UniProt Q96FF7)
inactive: nilotinib -0.042 | [1] 0.156 | dasatinib -0.024 | [2] 0.095 | [3] -0.119 | tipifarnib 0.139 | [5] 0.115

MMACHC (UniProt Q9Y4U1)
inactive: nilotinib -0.099 | [1] -0.065 | dasatinib 0.029 | [2] 0.039 | [3] 0.15 | tipifarnib -0.028

MINDY4 (UniProt Q4G0A6)
inactive: nilotinib -0.088 | [1] 0.171 | dasatinib -0.118 | [2] 0.028 | [3] -0.244 | tipifarnib 0.078

MGAT2 (UniProt Q10469)
inactive: nilotinib 0.006 | [1] -0.07 | dasatinib 0.03 | [2] 0.078 | [3] -0.065 | quisinostat -0.009 | tipifarnib 0.13 | [4] 0.033 | [5] -0.006 | [6] 0.016

MILR1 (UniProt Q7Z6M3)
inactive: quisinostat 0.003 | [4] 0.055 | [6] -0.198
